Some of the results follow.
Tests used:
Assay in all cases: log2 fold change, soluble protein after heating vs DMSO (PISA); higher = thermal stabilisation; K562 lysate, 10 uM; active = over 0.2 and 3.5 SD of the protein, either way, in both replicates (recomputed)
[1] = compound: C#Cc1cccc(Nc2ncnc3cc(OCCOC)c(OCCOC)cc23)c1 [erlotinib]
Procedure, shortened: (§1)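 A 30 min treatment with 10 μM compound was applied to crude K562 extract at 1 mg/mL protein in PBS pH 7.4 with 1 mM MgCl2. Heating for 3 min spanned 48°C-58°C, after which aliquots were pooled, adjusted to 0.5% NP-40 at 4°C and spun at 21,000xg for 90 min. TMTpro 16plex LC-MS/MS of the supernatant, with channel sums equalised, gave values recorded as log-two fold change in thermal stability against solvent controls, from duplicates.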

Sequences of proteins named here, by UniProt entry; tags and fusion partners are left off. A change or cut given only in a name is not applied to a line headed by its entry.
UniProt Q8NFP9, whole entry, looked up: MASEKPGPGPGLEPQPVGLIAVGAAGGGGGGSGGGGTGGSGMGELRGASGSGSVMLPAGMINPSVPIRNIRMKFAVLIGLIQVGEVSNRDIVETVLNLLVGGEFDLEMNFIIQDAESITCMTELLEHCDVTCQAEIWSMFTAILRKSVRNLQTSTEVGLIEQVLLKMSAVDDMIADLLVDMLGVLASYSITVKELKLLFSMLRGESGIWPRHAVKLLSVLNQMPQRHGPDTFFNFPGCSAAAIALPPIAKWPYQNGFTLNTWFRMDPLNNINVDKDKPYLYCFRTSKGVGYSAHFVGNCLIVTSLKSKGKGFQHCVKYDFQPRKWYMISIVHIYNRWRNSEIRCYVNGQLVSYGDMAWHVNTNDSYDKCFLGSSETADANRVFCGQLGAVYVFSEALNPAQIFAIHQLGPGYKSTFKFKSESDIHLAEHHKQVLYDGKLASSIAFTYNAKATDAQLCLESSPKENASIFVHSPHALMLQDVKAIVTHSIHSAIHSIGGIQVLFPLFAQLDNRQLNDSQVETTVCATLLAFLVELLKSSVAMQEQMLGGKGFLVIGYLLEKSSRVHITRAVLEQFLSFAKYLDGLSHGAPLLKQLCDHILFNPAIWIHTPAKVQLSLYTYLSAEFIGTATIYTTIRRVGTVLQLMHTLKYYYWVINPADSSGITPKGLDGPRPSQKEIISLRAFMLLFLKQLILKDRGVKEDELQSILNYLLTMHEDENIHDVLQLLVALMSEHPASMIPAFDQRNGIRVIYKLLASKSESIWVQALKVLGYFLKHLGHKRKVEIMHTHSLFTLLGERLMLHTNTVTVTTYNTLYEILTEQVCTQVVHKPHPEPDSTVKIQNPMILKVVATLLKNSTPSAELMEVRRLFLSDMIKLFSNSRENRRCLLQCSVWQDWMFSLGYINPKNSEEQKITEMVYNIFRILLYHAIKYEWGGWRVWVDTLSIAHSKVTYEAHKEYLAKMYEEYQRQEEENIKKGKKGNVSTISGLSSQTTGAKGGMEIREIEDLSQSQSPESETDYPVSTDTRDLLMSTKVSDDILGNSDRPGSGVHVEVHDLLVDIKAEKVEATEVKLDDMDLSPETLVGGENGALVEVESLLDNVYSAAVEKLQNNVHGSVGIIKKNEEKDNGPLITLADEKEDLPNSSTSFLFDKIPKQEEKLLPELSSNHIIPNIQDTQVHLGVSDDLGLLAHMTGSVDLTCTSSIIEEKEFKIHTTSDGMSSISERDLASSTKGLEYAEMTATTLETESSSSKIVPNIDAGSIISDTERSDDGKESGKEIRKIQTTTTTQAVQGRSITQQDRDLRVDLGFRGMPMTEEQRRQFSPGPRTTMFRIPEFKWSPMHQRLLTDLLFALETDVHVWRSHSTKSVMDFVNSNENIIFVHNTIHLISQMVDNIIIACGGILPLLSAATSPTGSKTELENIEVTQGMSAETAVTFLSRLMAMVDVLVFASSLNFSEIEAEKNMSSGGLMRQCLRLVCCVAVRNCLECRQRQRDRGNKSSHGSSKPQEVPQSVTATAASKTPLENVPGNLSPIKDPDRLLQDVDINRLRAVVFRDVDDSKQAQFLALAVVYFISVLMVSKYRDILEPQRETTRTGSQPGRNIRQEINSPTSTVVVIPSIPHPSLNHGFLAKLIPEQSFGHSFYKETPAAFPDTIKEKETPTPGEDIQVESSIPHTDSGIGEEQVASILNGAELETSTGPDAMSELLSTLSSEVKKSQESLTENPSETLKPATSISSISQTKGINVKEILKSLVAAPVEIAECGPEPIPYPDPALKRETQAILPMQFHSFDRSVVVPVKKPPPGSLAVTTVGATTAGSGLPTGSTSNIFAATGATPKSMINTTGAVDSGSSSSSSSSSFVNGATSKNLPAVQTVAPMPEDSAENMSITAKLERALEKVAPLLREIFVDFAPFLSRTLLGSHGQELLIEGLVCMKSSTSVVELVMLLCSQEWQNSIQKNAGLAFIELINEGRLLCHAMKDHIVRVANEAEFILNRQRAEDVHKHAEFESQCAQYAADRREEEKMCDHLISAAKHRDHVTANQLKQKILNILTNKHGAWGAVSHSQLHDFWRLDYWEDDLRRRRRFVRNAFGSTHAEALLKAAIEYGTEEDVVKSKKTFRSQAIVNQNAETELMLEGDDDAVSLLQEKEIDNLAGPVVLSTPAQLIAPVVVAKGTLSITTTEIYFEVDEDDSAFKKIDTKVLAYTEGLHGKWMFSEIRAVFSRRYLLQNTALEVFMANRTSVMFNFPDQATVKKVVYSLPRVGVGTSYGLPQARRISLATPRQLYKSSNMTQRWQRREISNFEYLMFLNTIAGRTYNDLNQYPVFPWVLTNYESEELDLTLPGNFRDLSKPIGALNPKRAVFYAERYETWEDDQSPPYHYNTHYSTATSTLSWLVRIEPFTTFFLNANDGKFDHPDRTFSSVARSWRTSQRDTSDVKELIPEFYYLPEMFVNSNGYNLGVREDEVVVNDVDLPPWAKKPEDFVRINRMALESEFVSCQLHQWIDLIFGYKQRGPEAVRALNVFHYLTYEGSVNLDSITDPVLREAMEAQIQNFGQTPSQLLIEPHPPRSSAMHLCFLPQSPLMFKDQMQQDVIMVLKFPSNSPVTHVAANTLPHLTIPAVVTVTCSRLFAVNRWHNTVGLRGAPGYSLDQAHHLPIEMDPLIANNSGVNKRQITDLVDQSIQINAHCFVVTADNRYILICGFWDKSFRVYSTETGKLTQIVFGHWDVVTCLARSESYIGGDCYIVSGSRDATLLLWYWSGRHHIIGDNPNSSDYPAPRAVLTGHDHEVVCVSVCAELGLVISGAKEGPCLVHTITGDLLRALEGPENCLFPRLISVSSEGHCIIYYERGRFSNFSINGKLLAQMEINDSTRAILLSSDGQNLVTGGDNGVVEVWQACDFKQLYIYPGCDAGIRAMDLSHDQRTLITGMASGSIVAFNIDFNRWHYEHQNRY
UniProt Q8IW45: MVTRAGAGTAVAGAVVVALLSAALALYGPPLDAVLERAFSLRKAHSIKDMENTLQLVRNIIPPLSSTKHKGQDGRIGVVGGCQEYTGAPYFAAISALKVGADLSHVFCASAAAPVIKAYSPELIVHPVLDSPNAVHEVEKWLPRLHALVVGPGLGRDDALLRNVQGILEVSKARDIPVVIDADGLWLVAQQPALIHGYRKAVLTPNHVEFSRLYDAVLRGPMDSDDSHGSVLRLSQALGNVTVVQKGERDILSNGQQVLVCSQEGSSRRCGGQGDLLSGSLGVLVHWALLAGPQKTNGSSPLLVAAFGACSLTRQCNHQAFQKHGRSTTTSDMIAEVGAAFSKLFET
UniProt Q6P582, whole entry, looked up: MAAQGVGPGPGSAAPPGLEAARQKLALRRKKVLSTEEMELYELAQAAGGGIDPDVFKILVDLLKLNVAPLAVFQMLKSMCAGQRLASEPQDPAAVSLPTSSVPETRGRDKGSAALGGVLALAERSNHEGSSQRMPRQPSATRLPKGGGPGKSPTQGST
UniProt Q8NI08: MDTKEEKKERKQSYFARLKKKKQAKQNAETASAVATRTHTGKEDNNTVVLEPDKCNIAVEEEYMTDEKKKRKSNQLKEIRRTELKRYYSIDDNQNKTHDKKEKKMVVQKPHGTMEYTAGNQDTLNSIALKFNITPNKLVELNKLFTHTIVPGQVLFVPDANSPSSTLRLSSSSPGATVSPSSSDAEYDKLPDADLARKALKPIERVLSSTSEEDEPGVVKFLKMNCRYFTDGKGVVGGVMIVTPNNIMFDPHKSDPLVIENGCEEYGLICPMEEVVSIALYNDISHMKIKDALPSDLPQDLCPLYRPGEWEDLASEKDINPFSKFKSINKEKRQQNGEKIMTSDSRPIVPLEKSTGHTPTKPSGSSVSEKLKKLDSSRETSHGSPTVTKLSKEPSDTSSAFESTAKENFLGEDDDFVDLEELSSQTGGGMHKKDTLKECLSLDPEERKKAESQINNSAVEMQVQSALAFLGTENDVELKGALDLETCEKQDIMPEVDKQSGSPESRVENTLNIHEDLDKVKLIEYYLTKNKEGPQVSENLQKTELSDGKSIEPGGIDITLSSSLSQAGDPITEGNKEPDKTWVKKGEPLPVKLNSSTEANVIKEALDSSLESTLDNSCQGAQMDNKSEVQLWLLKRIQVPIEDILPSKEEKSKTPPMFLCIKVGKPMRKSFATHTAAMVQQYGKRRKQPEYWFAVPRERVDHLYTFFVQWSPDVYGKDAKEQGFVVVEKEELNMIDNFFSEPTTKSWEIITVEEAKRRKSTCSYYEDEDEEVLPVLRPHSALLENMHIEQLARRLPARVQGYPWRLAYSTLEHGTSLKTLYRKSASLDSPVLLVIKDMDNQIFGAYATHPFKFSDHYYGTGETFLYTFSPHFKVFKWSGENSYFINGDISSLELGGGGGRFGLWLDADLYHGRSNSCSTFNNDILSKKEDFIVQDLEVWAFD
UniProt Q9BSU3: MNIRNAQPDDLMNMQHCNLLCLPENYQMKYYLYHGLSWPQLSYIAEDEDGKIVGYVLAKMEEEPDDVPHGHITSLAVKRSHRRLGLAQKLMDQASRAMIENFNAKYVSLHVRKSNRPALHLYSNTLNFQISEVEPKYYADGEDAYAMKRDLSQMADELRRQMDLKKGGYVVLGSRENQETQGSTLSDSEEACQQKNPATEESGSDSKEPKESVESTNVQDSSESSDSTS
UniProt P52179: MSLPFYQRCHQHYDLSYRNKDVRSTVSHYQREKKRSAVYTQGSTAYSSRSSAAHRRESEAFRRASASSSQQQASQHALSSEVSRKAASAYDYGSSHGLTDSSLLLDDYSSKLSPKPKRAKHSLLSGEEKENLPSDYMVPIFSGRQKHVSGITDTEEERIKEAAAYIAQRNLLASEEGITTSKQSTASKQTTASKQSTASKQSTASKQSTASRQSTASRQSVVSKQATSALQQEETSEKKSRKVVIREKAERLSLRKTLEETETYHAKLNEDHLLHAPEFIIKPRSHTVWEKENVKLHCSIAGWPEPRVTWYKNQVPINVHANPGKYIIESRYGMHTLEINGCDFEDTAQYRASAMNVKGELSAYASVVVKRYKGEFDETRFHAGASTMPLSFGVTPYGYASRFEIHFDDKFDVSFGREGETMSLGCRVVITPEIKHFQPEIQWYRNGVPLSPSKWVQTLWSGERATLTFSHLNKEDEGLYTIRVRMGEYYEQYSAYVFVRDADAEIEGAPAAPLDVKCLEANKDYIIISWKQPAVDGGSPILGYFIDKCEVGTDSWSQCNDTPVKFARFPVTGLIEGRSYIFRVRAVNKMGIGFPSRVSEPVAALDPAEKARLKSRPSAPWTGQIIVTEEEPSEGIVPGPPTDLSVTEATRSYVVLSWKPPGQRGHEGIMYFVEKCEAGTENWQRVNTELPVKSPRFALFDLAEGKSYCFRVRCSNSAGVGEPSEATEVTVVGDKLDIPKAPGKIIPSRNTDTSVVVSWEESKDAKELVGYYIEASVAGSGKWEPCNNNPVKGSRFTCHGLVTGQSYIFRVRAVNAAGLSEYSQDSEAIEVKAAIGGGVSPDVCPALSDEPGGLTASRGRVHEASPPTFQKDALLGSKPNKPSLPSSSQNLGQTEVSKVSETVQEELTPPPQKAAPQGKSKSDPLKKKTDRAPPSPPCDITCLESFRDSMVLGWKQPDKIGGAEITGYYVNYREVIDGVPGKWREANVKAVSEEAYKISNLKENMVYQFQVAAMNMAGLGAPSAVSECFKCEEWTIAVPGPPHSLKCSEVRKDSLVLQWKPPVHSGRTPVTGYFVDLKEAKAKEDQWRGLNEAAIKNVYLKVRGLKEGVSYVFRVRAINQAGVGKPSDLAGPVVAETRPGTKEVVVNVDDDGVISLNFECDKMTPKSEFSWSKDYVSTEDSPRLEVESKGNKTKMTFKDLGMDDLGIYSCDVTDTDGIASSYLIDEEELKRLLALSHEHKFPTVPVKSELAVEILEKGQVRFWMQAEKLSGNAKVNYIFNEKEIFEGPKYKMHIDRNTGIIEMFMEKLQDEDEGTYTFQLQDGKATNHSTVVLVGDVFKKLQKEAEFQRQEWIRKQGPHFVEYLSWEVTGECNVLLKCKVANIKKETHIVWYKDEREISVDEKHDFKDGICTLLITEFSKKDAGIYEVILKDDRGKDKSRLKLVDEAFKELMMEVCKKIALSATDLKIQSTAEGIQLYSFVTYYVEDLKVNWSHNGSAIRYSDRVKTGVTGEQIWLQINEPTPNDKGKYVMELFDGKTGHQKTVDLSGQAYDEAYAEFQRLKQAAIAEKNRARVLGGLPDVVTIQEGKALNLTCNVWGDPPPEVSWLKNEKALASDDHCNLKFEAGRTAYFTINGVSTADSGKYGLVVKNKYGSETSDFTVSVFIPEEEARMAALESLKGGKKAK
UniProt P18440: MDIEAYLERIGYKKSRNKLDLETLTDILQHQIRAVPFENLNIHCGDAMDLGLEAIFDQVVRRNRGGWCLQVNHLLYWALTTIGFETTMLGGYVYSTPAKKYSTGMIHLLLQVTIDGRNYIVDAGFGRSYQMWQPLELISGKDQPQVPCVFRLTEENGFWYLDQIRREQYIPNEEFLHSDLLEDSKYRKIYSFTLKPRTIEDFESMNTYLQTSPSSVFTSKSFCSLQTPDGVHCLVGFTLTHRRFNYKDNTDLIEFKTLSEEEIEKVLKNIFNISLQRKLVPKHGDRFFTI

[2] = compound: C/C(=N\NC(=O)C1=CC(=CC=C1)S(=O)(=O)N2CCOCC2)/C3=C(C=CC(=C3)Cl)O
Procedure, shortened: as §1

[3] = compound: C1=CC(=CC=C1C2=NC3=C(N2)C=C(C=C3)C(=O)N)OC4=CC=C(C=C4)Cl
Procedure, shortened: as §1

[4] = compound: C1=CC2=C(C=CC(=C2)/C=C\3/C(=O)NC(=NCC4=CC=CS4)S3)N=C1
Procedure, shortened: as §1

[5] = compound: C1=CC2=NC=CN=C2C=C1/C=C/3\C(=O)NC(=O)S3
Procedure, shortened: as §1

[6] = compound: C1=CC=C(C=C1)C2=NC(=C(N2)C3=CC=NC=C3)C4=CC(=C(C=C4)Cl)O
Procedure, shortened: as §1

[7] = compound: C1=CC=C2C(=C1)C3=NNC4=CC=CC(=C43)C2=O
Procedure, shortened: as §1

[8] = compound: C1CCN(C1)C(=O)NC2=CC=CC(=C2)NC3=NC=C(C(=N3)NCCC4=CN=CN4)Br
Procedure, shortened: as §1

[9] = compound: C1CN(CCC1(CC2=CC=C(C=C2)Cl)N)C3=NC=NC4=C3C=CN4
Procedure, shortened: as §1

[10] = compound: C1COCCN1CCN2C3=CC=CC=C3N=C2NC(=O)C4=CC(=CC=C4)[N+](=O)[O-] [IRAK-1-4 Inhibitor I]
Procedure, shortened: as §1

[11] = compound: C=CC(=O)N1CCC[C@@H](n2nc(-c3ccc(Oc4ccccc4)cc3)c3c(N)ncnc32)C1 [ibrutinib]
Procedure, shortened: as §1

[12] = compound: CC(=O)c1cnc2ccc(-c3cc(Cl)c(O)c(Cl)c3)nc2c1N[C@H]1CC[C@H](CN(C)C)CC1
Procedure, shortened: as §1

[13] = compound: CC(C)(C)Cn1c(N)nc2ccc(-c3[nH]c(C(C)(C)C)nc3-c3ccc(F)cc3)nc21 [ralimetinib]
Procedure, shortened: as §1

[14] = compound: CC(C)(O)CC(=O)NCCn1ccc2ncnc(Nc3ccc(Oc4cccc(C(F)(F)F)c4)c(Cl)c3)c21
Procedure, shortened: as §1

[15] = compound: CC(C)C1=C2N=C(C=C(N2N=C1)NCC3=CC=CC=C3)NCCCCCCN
Procedure, shortened: as §1

[16] = compound: CC1=C(C(CC(=O)N1)C2=CC=C(C=C2)C(F)(F)F)C(=O)NC3=C(C=C4C(=C3)C=NN4)F
Procedure, shortened: as §1

[17] = compound: CC1=C(C2=C(C=C1)C(=O)C3=CC=CC=C3N2CCCN)C
Procedure, shortened: as §1

[18] = compound: CC1=C(C=C(C=C1)NC(=O)C2=CC(=CC=C2)C(C)(C)C#N)NC3=CC4=C(C=C3)N=CN(C4=O)C
Procedure, shortened: as §1

[19] = compound: CC1=C(C=C(C=C1)NC(=O)C2=CC(=CC=C2)N(C)C)NC(=O)C3=CC=C(C=C3)O
Procedure, shortened: as §1

[20] = compound: CC1=CC=C(C=C1)SC2=C3C=C(SC3=CN=C2)C(=O)N
Procedure, shortened: as §1

| Target | log2 fold change [1] | log2 fold change [2] | log2 fold change [3] | log2 fold change [4] | log2 fold change [5] | log2 fold change [6] | log2 fold change [7] | log2 fold change [8] | log2 fold change [9] | log2 fold change [10] | log2 fold change [11] | log2 fold change [12] | log2 fold change [13] | log2 fold change [14] | log2 fold change [15] | log2 fold change [16] | log2 fold change [17] | log2 fold change [18] | log2 fold change [19] | log2 fold change [20] |
| --- | --- | --- | --- | --- | --- | --- | --- | --- | --- | --- | --- | --- | --- | --- | --- | --- | --- | --- | --- | --- |
| NCAPD3 (UniProt P42695) | inactive: 0.023 | inactive: 0.021 | inactive: -0.012 | inactive: 0.006 | inactive: -0.003 | inactive: 0.012 | inactive: -0.043 | inactive: -0.004 | inactive: 0.042 | inactive: 0.03 | inactive: 0.001 | inactive: -0.017 | inactive: 0.043 | inactive: -0.019 | inactive: -0.008 | inactive: 0.007 | inactive: -0.024 | inactive: -0.012 | inactive: 0.036 | inactive: -0.012 |
| NBEA (UniProt Q8NFP9) | inactive: -0.095 | inactive: -0.049 | inactive: -0.071 | inactive: 0.04 | inactive: 0.046 | inactive: -0.007 | inactive: -0.032 | inactive: -0.038 | inactive: 0.052 | inactive: -0.054 | inactive: -0.02 | inactive: -0.03 | inactive: 0.005 | inactive: 0.028 | inactive: -0.02 | inactive: 0.011 | inactive: -0.06 | inactive: -0.007 | inactive: -0.017 | inactive: 0.028 |
| NCBP2AS2 (UniProt Q69YL0) | inactive: 0.067 | inactive: -0.06 | inactive: -0.086 | inactive: 0.014 | inactive: 0.014 | inactive: -0.056 | inactive: -0.014 | inactive: -0.281 | inactive: 0.041 | inactive: 0.049 | inactive: 0.04 | inactive: 0.103 | inactive: -0.074 | inactive: -0.019 | inactive: -0.048 | inactive: 0.037 | inactive: -0.019 | inactive: 0.036 | inactive: 0 | inactive: -0.023 |
| NCOA6 (UniProt Q14686) | inactive: -0.037 | inactive: 0.001 | inactive: 0.033 | inactive: -0.022 | inactive: -0.058 | inactive: 0.046 | inactive: -0.013 | inactive: -0.06 | inactive: 0.023 | inactive: -0.056 | inactive: -0.019 | inactive: -0.008 | inactive: 0.021 | inactive: -0.051 | inactive: 0.007 | inactive: 0.084 | inactive: 0.011 | inactive: 0.013 | inactive: 0.056 | inactive: -0.042 |
| NAXD (UniProt Q8IW45) | inactive: 0.021 | inactive: -0.037 | inactive: 0.058 | inactive: 0.106 | inactive: 0.02 | inactive: -0.03 | inactive: -0.059 | inactive: -0.003 | inactive: 0.002 | inactive: -0.01 | inactive: 0.059 | inactive: -0.019 | inactive: -0.021 | inactive: -0.047 | inactive: 0.006 | inactive: -0.003 | inactive: -0.036 | inactive: 0.04 | inactive: -0.001 | inactive: 0.016 |
| MZT2A (UniProt Q6P582) | inactive: -0.082 | inactive: -0.037 | inactive: -0.098 | inactive: 0.018 | inactive: -0.058 | inactive: -0.045 | inactive: -0.073 | inactive: 0.052 | inactive: 0.015 | inactive: -0.031 | inactive: 0.069 | inactive: 0.045 | inactive: -0.05 | inactive: 0.107 | inactive: -0.072 | inactive: 0.042 | inactive: 0.048 | inactive: -0.067 | inactive: -0.101 | inactive: 0.032 |
| NCOA7 (UniProt Q8NI08) | inactive: 0.036 | inactive: 0.014 | inactive: 0.029 | inactive: -0.021 | inactive: -0.025 | inactive: 0.02 | inactive: -0.042 | inactive: -0.031 | inactive: 0.031 | inactive: -0.007 | inactive: 0 | inactive: 0.016 | inactive: 0.004 | inactive: 0.007 | inactive: 0.006 | inactive: 0.003 | inactive: -0.034 | inactive: -0.004 | inactive: -0.003 | inactive: 0.01 |
| MYD88 isoform 6 (UniProt Q99836) | inactive: -0.066 | inactive: 0.007 | inactive: -0.011 | inactive: -0.019 | inactive: -0.019 | inactive: -0.015 | inactive: -0.025 | inactive: 0.032 | inactive: -0.067 | inactive: 0.004 | inactive: 0.044 | inactive: 0.003 | inactive: 0.022 | inactive: 0.005 | inactive: 0.024 | inactive: 0.002 | inactive: -0.028 | inactive: -0.009 | inactive: -0.024 | inactive: -0.029 |
| NCK1 (UniProt P16333) | inactive: 0.02 | inactive: 0.036 | inactive: 0.04 | inactive: -0.007 | inactive: -0.01 | inactive: -0.009 | inactive: -0.072 | inactive: -0.024 | inactive: 0.049 | inactive: 0.002 | inactive: 0.025 | inactive: -0.029 | inactive: 0.003 | inactive: 0.01 | inactive: -0.016 | inactive: 0.028 | inactive: 0.002 | inactive: -0.005 | inactive: 0.029 | inactive: 0 |
| NCKAP1 isoform 2 (UniProt Q9Y2A7) | inactive: 0.012 | inactive: 0.015 | inactive: 0.004 | inactive: 0.017 | inactive: 0.013 | inactive: -0.001 | inactive: -0.006 | inactive: -0.003 | inactive: 0.017 | inactive: 0.002 | inactive: 0.007 | inactive: -0.008 | inactive: 0.001 | inactive: -0.007 | inactive: -0.016 | inactive: 0.007 | inactive: 0.006 | inactive: 0.008 | inactive: 0.005 | inactive: 0.023 |
| NASP (UniProt P49321) | inactive: -0.017 | inactive: 0.011 | inactive: -0.001 | inactive: 0.003 | inactive: 0.009 | inactive: 0.007 | inactive: 0.022 | inactive: 0.023 | inactive: 0.003 | inactive: -0.009 | inactive: -0.007 | inactive: -0.002 | inactive: -0.033 | inactive: 0.004 | inactive: -0.019 | inactive: -0.016 | inactive: 0.012 | inactive: -0.007 | inactive: -0.017 | inactive: -0.01 |
| MYDGF (UniProt Q969H8) | inactive: -0.014 | inactive: -0.011 | inactive: 0.05 | inactive: 0.013 | inactive: 0.002 | inactive: -0.001 | inactive: -0.017 | inactive: 0 | inactive: -0.005 | inactive: -0.012 | inactive: -0.024 | inactive: -0.013 | inactive: -0.034 | inactive: -0.006 | inactive: -0.043 | inactive: -0.013 | inactive: 0.016 | inactive: 0.015 | inactive: -0.013 | inactive: -0.014 |
| NAA11 (UniProt Q9BSU3) | inactive: -0.031 | inactive: -0.021 | inactive: 0.045 | inactive: 0.048 | inactive: -0.102 | inactive: 0.031 | inactive: -0.208 | inactive: 0.004 | inactive: 0.04 | inactive: -0.041 | inactive: 0.021 | inactive: -0.053 | inactive: 0.206 | inactive: 0.059 | inactive: -0.007 | inactive: -0.063 | inactive: 0.028 | inactive: -0.058 | inactive: 0.007 | inactive: -0.051 |
| NAA30 (UniProt Q147X3) | inactive: 0.015 | inactive: -0.027 | inactive: 0.061 | inactive: 0.026 | inactive: -0.007 | inactive: -0.046 | inactive: -0.038 | inactive: -0.088 | inactive: -0.031 | inactive: 0.085 | inactive: 0.013 | inactive: -0.017 | inactive: 0.057 | inactive: -0.037 | inactive: -0.018 | inactive: 0.084 | inactive: -0.024 | inactive: -0.045 | inactive: 0.004 | inactive: 0.046 |
| MYOM1 (UniProt P52179) | inactive: -0.015 | inactive: 0.033 | inactive: -0.062 | inactive: -0.228 | inactive: -0.076 | inactive: -0.009 | inactive: 0.098 | inactive: -0.023 | inactive: 0.142 | active: 0.503 | inactive: -0.017 | inactive: 0.016 | inactive: 0.254 | inactive: 0.026 | inactive: -0.017 | inactive: 0.011 | inactive: -0.156 | inactive: 0.052 | inactive: -0.083 | inactive: -0.025 |
| NAT1 (UniProt P18440) | inactive: 0.001 | inactive: -0.011 | inactive: -0.007 | inactive: -0.136 | inactive: -0.015 | inactive: -0.011 | active: 0.528 | inactive: -0.021 | inactive: 0.035 | inactive: -0.013 | inactive: -0.089 | inactive: -0.039 | inactive: 0.062 | inactive: 0.019 | inactive: -0.035 | inactive: -0.001 | inactive: -0.048 | inactive: 0.034 | inactive: 0.009 | inactive: 0.052 |

Random excerpt: two records from the list.

| Target | log2 fold change [1] | log2 fold change [2] | log2 fold change [3] | log2 fold change [4] | log2 fold change [5] | log2 fold change [6] | log2 fold change [7] | log2 fold change [8] | log2 fold change [9] | log2 fold change [10] | log2 fold change [11] | log2 fold change [12] | log2 fold change [13] | log2 fold change [14] | log2 fold change [15] | log2 fold change [16] | log2 fold change [17] | log2 fold change [18] | log2 fold change [19] | log2 fold change [20] |
| --- | --- | --- | --- | --- | --- | --- | --- | --- | --- | --- | --- | --- | --- | --- | --- | --- | --- | --- | --- | --- |
| MYD88 isoform 6 (UniProt Q99836) | inactive: -0.066 | inactive: 0.007 | inactive: -0.011 | inactive: -0.019 | inactive: -0.019 | inactive: -0.015 | inactive: -0.025 | inactive: 0.032 | inactive: -0.067 | inactive: 0.004 | inactive: 0.044 | inactive: 0.003 | inactive: 0.022 | inactive: 0.005 | inactive: 0.024 | inactive: 0.002 | inactive: -0.028 | inactive: -0.009 | inactive: -0.024 | inactive: -0.029 |
| NCOA6 (UniProt Q14686) | inactive: -0.037 | inactive: 0.001 | inactive: 0.033 | inactive: -0.022 | inactive: -0.058 | inactive: 0.046 | inactive: -0.013 | inactive: -0.06 | inactive: 0.023 | inactive: -0.056 | inactive: -0.019 | inactive: -0.008 | inactive: 0.021 | inactive: -0.051 | inactive: 0.007 | inactive: 0.084 | inactive: 0.011 | inactive: 0.013 | inactive: 0.056 | inactive: -0.042 |

From the supplement of paper PMC10849652
